Measurements from the supplement of paper PMC12823440, “Inhibitors supercharge kinase turnover through native proteolytic circuits” (Nature, 2025).
Structures can show the parent of a compound that is named as a salt. This is one part of the list. The calls rarely recur for the same compound in another form.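 In K562 cells expressing nanoluciferase-fused kinases, luminescence was recorded at 4 h intervals between 2 and 18 h, normalized as percent of control with DMSO at 100% and a positive control at 0%. A significant (2 sigma) signal drop marks a time point as decreased. The authors' rule for a hit is not shown and takes in more than the number of time points.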

The chains behind the UniProt entries cited, without tags or fusion partners. Where a name states a change or a piece, a line headed by the entry shows the natural chain unless it says otherwise.
UniProt O96013: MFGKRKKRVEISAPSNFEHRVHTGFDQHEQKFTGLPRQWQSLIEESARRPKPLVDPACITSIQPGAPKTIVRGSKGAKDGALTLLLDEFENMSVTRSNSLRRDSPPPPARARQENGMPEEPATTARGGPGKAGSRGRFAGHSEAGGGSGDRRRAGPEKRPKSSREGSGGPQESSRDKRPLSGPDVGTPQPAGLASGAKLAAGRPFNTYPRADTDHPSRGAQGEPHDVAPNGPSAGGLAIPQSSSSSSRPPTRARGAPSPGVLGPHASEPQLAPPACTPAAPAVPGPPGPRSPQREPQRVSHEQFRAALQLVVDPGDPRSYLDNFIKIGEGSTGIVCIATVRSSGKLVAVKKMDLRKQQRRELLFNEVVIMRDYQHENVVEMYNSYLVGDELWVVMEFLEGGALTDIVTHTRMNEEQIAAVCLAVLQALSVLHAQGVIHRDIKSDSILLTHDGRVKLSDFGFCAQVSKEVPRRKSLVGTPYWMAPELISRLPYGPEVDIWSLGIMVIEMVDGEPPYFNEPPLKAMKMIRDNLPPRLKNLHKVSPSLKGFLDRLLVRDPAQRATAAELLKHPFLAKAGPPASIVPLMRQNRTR
UniProt Q96KB5: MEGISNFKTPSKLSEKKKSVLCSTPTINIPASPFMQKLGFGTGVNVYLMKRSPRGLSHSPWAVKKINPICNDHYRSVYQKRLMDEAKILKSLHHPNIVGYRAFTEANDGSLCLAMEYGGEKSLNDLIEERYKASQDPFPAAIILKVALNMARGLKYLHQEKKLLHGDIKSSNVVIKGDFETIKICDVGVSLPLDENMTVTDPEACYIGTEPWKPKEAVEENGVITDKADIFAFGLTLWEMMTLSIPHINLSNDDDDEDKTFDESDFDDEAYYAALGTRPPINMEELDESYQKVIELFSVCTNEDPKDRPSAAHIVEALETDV

molecular target: PAK4 (UniProt O96013); assay: kinase-Nluc reporter destabilization hit call (1 = scored as downregulated) (binary); higher = compound decreases kinase abundance; conditions: K562; 2-18 h

kinase-Nluc reporter destabilization hit call, inactive:
Cc1cc(Nc2cc(Cl)nc(Oc3ccc([N+](=O)[O-])cc3)n2)n[nH]1 [Autophinib] (2.5 µM) 0, CN1CCN(c2ccc(Nc3ncc4nc(Nc5ccccc5)n([C@@H]5CCN(S(=O)(=O)C6CC6)C5)c4n3)cc2)CC1 (2.5 µM) 0, Cc1c(CN2CCN(S(C)(=O)=O)CC2)sc2c(N3CCOCC3)nc(-c3cnc(N)nc3)nc12 (2.5 µM) 0, O=C(NCCCNc1nc(Nc2cccc(NC(=O)N3CCCC3)c2)ncc1I)c1cccs1 (2.5 µM) 0, O=C(/C=C/c1ccc(O[C@@H]2O[C@H](CO)[C@@H](O)[C@H](O)[C@H]2O[C@@H]2OC[C@](O)(CO)[C@H]2O)cc1)c1ccc(O)cc1O [Isoliquiritin apioside] (10 µM) 0, O=C1NC(=O)/C(=C/c2ccc3c(c2)OC(F)(F)O3)S1 (10 µM) 0, COc1ccc([C@@H]2CC(=O)c3c(O)cc(O)cc3O2)cc1O [Hesperetin] (10 µM) 0, N#Cc1c(-c2ccccc2)cc(-c2cc(Br)ccc2O)[nH]c1=O (10 µM) 0, Cc1c(CN2CCN(C(=O)[C@H](C)O)CC2)sc2c(N3CCOCC3)nc(-c3cnc(N)nc3)nc12 [Apitolisib] (10 µM) 0, NC1(Cc2ccc(Cl)cc2)CCN(c2ncnc3[nH]ccc23)CC1 (10 µM) 0, O=C(/C=C/c1ccc(O)c(O)c1)c1ccc(O[C@@H]2O[C@H](CO)[C@@H](O)[C@H](O)[C@H]2O)c(O)c1O [Marein] (10 µM) 0, CN(CC(=O)N(Cc1ccc(C2CCCCC2)cc1)c1ccc(C(=O)O)cc1)S(=O)(=O)c1c(F)c(F)c(F)c(F)c1F (2.5 µM) 0, CC(C)NC(=O)N1CC[C@H](NC2=Nc3cc(F)ccc3N(CC(F)F)c3ccc(Cl)cc32)C1 (10 µM) 0

molecular target: PBK (UniProt Q96KB5); assay: as above; conditions: K562; 2-18 h

kinase-Nluc reporter destabilization hit call, inactive:
Cn1cc(Nc2nccc(N3C[C@H]4CC[C@@H](C3)N4C(=O)[C@@H]3CC3(F)F)n2)cn1 (10 µM) 0, CC(C)=CC(=O)CCC(=O)N1CCN(Cc2cc3nc(-c4cccc5[nH]ncc45)nc(N4CCOCC4)c3s2)CC1 (10 µM) 0, CN(C)CCN(Cc1ccc(Cl)cc1)c1ccccn1 [Chloropyramine hydrochloride] (10 µM) 0, COc1cc([N+](=O)[O-])ccc1S(=O)(=O)N1C[C@@H](CN2CCN(c3ccccn3)CC2)[C@H](c2cccc(F)c2)C1 (relative stereo) (10 µM) 0, Cc1noc(C)c1-c1ccc(-c2cc(C(N)=O)c(NC(N)=O)s2)c(O[C@H]2CCNC2)c1 (10 µM) 0, CC(C)(C)NC(=O)c1cncn1C1CCN(c2ccc(-c3nnc(C(F)(F)F)o3)cn2)CC1 (10 µM) 0, COc1cccc(-n2c(=O)[nH]c3cc(Cl)n(-c4ccc(-c5cccc(OC)c5O)cc4)c3c2=O)c1 (2.5 µM) 0, O=C(Nc1cccnc1)c1cc(C(=O)c2c(F)cccc2Br)c[nH]1 (10 µM) 0, O=C(Nc1cc(Oc2cc(F)c(NC(=O)C3(C(=O)Nc4ccc(F)cc4)CC3)cc2F)ccn1)C1CC1 [Altiratinib] (10 µM) 0, O=C1NC(=O)C(=Cc2ccc(-c3ccc(F)cc3)o2)S1 (stereo in doubt) (10 µM) 0, O=C(NC(NC(=S)Nc1ccc(F)c([N+](=O)[O-])c1)C(Cl)(Cl)Cl)C(c1ccccc1)c1ccccc1 (stereo unspecified) (10 µM) 0, Nc1ncnc2c1ncn2[C@@H]1O[C@H](CO)C[C@H]1O [Cordycepin] (10 µM) 0, CC(C)(NS(=O)(=O)c1ccc2c(Cl)cnc(N=C(N)N)c2c1)C(=O)O (10 µM) 0, COc1cc2ncnc(Nc3cccc(Cl)c3)c2cc1OC (10 µM) 0, CCOc1ccc(C(=O)Nc2ncc([N+](=O)[O-])s2)cc1 (10 µM) 0, CC(C)CN[C@H]1CS(=O)(=O)C[C@@H]1S(=O)(=O)c1ccc(Cl)cc1 (10 µM) 0, CCn1c(=O)c(-c2ccc(-c3cncs3)cc2Cl)cc2cnc(Nc3ccc(N4CCN(C)CC4)cc3)nc21 (2.5 µM) 0, C[C@]1(O)CCC[C@@H]1n1c(=O)c(C(F)F)cc2cnc(NC3CCN(S(C)(=O)=O)CC3)nc21 (10 µM) 0, COc1c(NC(=O)C(=O)c2ccc(OCCN3CCOCC3)c3ccccc23)cc(C(C)(C)C)cc1NS(C)(=O)=O (2.5 µM) 0, COc1cc(S(C)(=O)=O)ccc1Nc1nc2ccc(-c3ccc(NC(=O)[C@H](C)c4ccc(F)cc4)cc3)cn2n1 [Empesertib] (10 µM) 0, Nc1cc(Nc2ccc(S(N)(=O)=O)cc2)ncn1 (10 µM) 0, O=C(O)c1cc(O)ccc1O [2,5-Dihydroxybenzoic acid] (10 µM) 0, OCCNC1CCCc2c1[nH]c1ccc(-c3ccccc3)cc21 (stereo unspecified) (2.5 µM) 0, CC(C)CC1(O)CCN(C(=O)c2ccc(NS(=O)(=O)c3cccc4nccnc34)cc2)CC1 (10 µM) 0, CNC(=O)c1ccc(-c2cnc3cnc(C(=O)N(C)c4ccc(Cl)cc4)cn23)cc1 (2.5 µM) 0, Cc1cc(Nc2cc(Cl)nc(Oc3ccc([N+](=O)[O-])cc3)n2)n[nH]1 [Autophinib] (2.5 µM) 0, CN1CCN(c2ccc(Nc3ncc4nc(Nc5ccccc5)n([C@@H]5CCN(S(=O)(=O)C6CC6)C5)c4n3)cc2)CC1 (2.5 µM) 0, Cc1c(CN2CCN(S(C)(=O)=O)CC2)sc2c(N3CCOCC3)nc(-c3cnc(N)nc3)nc12 (2.5 µM) 0, O=C(NCCCNc1nc(Nc2cccc(NC(=O)N3CCCC3)c2)ncc1I)c1cccs1 (2.5 µM) 0, O=C(/C=C/c1ccc(O[C@@H]2O[C@H](CO)[C@@H](O)[C@H](O)[C@H]2O[C@@H]2OC[C@](O)(CO)[C@H]2O)cc1)c1ccc(O)cc1O [Isoliquiritin apioside] (10 µM) 0, O=C1NC(=O)/C(=C/c2ccc3c(c2)OC(F)(F)O3)S1 (10 µM) 0, COc1ccc([C@@H]2CC(=O)c3c(O)cc(O)cc3O2)cc1O [Hesperetin] (10 µM) 0, N#Cc1c(-c2ccccc2)cc(-c2cc(Br)ccc2O)[nH]c1=O (10 µM) 0, Cc1c(CN2CCN(C(=O)[C@H](C)O)CC2)sc2c(N3CCOCC3)nc(-c3cnc(N)nc3)nc12 [Apitolisib] (10 µM) 0, NC1(Cc2ccc(Cl)cc2)CCN(c2ncnc3[nH]ccc23)CC1 (10 µM) 0, O=C(/C=C/c1ccc(O)c(O)c1)c1ccc(O[C@@H]2O[C@H](CO)[C@@H](O)[C@H](O)[C@H]2O)c(O)c1O [Marein] (10 µM) 0, CN(CC(=O)N(Cc1ccc(C2CCCCC2)cc1)c1ccc(C(=O)O)cc1)S(=O)(=O)c1c(F)c(F)c(F)c(F)c1F (2.5 µM) 0, CC(C)NC(=O)N1CC[C@H](NC2=Nc3cc(F)ccc3N(CC(F)F)c3ccc(Cl)cc32)C1 (10 µM) 0
